Experimental data published in patent publication US7897591B2, “Method of treating fatty liver disease” (priority 2005, dated 2011).

Tested on: C57BL/6 mice
Experiment: Fatty acid analysis of serum and liver lipids (triglycerides, phospholipids) in HCD mouse model
Format: in vivo
Conditions: HCD+MAR mice; >0.2 = essential fatty acid deficiency; mean±SEM
Method: Experiments were performed on 5-6 week-old C57BL/6 mice (Jackson Laboratories, Bar Harbor, Me.). The animals, in groups of five, were housed in a barrier room and were acclimated to their environment for at least 72 hours prior to the initiation of each experiment. Animal protocols complied with the NIH Animal Research Advisory Committee guidelines and were approved by the Children's Hospital Boston Animal Care and Use Committee. Control animals (n=5) received normal chow and water ad libitum. All animals in the experimental groups were fed a fat-free, high carbohydrate liquid diet (HCD) ad libitum placed in one bottle per cage as previously described (3, 62). No additional sources of nutrition or hydration were provided. The HCD liquid solution contained 20% dextrose, a commercial mixture of 2% essential and nonessential amino acids (TrophAmine, B. Braun Medical, Irvine, Calif.), 2 ml trace elements (Trace Elements Injection 4, USP—Pediatric, American Regent Shirley, N.Y.), and 5 ml multivitamins (M.V.I. Pediatric™, Mayne Pharma, Paramus, N.J.). Each liter of HCD contained 30 meq sodium, 20 meq potassium chloride, 15 meq calcium, 10 meq magnesium, and 10 mM phosphate. The bottles were replaced daily with fresh HCD solution. HCD animals (n=5) received HCD only and no additional treatment for 19 days. […]

SMILES: CNC(=O)[C@@H](NC(=O)[C@H](CC(C)C)[C@H](O)C(=O)NO)C(C)(C)C [Marimastat]
- Mead acid:Arachidonic acid ratio (M:A) in serum lipid: 0.47±0.08
